The values that follow come from PMC11383180.

Chains of the proteins cited; added tags and fusions are not shown. Lines headed by an entry give the natural chain unless they say otherwise; changes in a name come on top. A line that says so, or that is headed by a name, gives the form on record, which may keep a tag or linker.
UniProt Q96LD4: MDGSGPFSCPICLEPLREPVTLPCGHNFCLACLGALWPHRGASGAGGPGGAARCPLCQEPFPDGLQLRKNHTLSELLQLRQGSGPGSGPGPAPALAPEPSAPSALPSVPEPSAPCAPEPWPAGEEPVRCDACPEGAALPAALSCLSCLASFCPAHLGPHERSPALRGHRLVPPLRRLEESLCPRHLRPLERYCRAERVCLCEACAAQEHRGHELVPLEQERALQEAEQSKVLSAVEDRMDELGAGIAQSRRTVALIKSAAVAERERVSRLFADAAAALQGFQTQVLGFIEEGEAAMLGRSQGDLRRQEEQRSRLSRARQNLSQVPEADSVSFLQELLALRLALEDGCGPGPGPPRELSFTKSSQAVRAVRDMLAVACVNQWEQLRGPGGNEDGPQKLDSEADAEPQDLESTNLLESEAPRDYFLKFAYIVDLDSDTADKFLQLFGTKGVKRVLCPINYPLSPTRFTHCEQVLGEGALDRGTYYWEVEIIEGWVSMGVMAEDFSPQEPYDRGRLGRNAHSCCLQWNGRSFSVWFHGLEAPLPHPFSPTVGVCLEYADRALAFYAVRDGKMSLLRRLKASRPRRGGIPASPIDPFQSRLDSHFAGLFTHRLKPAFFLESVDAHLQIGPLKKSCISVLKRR
in vitro-translated mutant ADAM17 (p.D647N) (P78536-1, form named): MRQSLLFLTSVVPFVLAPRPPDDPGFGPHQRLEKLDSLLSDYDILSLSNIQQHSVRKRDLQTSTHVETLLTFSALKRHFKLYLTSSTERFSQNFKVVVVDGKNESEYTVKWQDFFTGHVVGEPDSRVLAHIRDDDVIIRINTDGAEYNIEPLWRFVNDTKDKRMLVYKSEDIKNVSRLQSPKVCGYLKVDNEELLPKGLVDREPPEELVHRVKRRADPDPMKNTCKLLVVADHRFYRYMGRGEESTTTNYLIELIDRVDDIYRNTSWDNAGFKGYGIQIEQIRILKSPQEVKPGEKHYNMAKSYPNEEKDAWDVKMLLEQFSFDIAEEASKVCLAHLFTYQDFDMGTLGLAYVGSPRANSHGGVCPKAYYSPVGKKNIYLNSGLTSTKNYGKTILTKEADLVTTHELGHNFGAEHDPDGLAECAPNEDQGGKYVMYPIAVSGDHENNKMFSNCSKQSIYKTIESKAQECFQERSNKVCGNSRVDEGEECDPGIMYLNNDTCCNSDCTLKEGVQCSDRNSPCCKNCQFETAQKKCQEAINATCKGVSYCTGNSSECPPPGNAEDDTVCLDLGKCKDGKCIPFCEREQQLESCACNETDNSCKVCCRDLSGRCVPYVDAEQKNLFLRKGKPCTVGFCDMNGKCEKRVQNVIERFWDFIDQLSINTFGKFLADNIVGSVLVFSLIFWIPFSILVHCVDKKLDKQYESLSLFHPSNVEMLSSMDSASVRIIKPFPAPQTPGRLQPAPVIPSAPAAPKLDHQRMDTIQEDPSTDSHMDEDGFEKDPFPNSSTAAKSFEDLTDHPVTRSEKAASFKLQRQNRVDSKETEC

The target of the assay is His-tagged TRIM47 (UniProt Q96LD4). Briefly: pull-down; His-tagged TRIM47 purified on Ni-NTA beads, incubated with in vitro-translated wild-type or mutant ADAM17 overnight at 4°C; washed with ice-cold buffer, eluted from the beads, immunoblot; only the target purified. On the technique in general: In western blotting, separated proteins are transferred to a membrane and probed.

These are yes or no findings as the source states them, for the method shown. Binding seen in cells or lysates may run through a third protein. Some binding calls cover weakened binding; strength is not graded here.

Turning to “in vitro-translated wild-type ADAM17 (from UniProt P78536-1 1-824)”, the binding result is “binds”.

For the substance “in vitro-translated mutant ADAM17 (p.D647N) (from UniProt P78536-1 1-824)”, the binding result is “binds”.
